Values of other authors as cited in patent US20100136094A1, “Systems for modulating inflammation” (Searete LLC, a limited liability corporation of the state …, priority 2008, published 2010).
At least one compound was matched to its structure with a doubt left.

Columns and labels:
malarial parasites = conditions: Meshnick et al. 1990
Giardia = conditions: Nash et al. 1998

CCN(CC)C(=S)S [Diethyldithiocarbamate]
toxic: toxicity to malarial parasites (malarial parasites) | toxicity to Leishmania (Leishmania) | toxicity to Giardia (Giardia)
